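Malaria parasite (P. falciparum) lines kept in red blood cells; parasite DNA is measured by SYBR Green fluorescence after lysis, 72 h after compound addition.
Each compound was titrated across a series from about 0.000037 to 29 µM.
The number is the fitted AC50, the concentration giving a half-maximal change in signal; a lower value means higher potency, whether the curve shows a decrease or an increase.
Calls follow the curve class and fit quality: every row here is inconclusive, covering signal-raising curves and weak, poorly fitted, partial or highest-dose-only inhibition curves.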

Values are in µM.
All entries here are filed as inconclusive.
These entries are mostly ones the record files as inconclusive; other results of the assay are not listed here.
Potencies fitted to partial, single-point or poorly fitting curves are rough.

With Oc1c(Cl)cc(Cl)c(Cl)c1Cc1c(O)c(Cl)cc(Cl)c1Cl [CP291] the assay gave potency 13.46 µM (inhibitor, single point).
With Oc1c(Cl)cc(Cl)c(Cl)c1Cc1c(O)c(Cl)cc(Cl)c1Cl [CP297] the assay gave potency 16.94 µM (inhibitor, single point).
With Oc1c(Cl)cc(Cl)c(Cl)c1Cc1c(O)c(Cl)cc(Cl)c1Cl [CP265] the assay gave potency 10 µM (inhibitor, single point).
With Oc1c(Cl)cc(Cl)c(Cl)c1Cc1c(O)c(Cl)cc(Cl)c1Cl [CP268] the assay gave potency 16.94 µM (inhibitor, single point).
With Oc1c(Cl)cc(Cl)c(Cl)c1Cc1c(O)c(Cl)cc(Cl)c1Cl [N140] the assay gave potency 11.22 µM (inhibitor, single point).
With Oc1c(Cl)cc(Cl)c(Cl)c1Cc1c(O)c(Cl)cc(Cl)c1Cl [PC15] the assay gave potency 11.22 µM (inhibitor, single point).
With Oc1c(Cl)cc(Cl)c(Cl)c1Cc1c(O)c(Cl)cc(Cl)c1Cl [CP325] the assay gave potency 6.012 µM (inhibitor, partial curve).
With Oc1ccc(Cl)cc1Sc1cc(Cl)ccc1O [DIV17] the assay gave potency 15.1 µM (inhibitor, single point).
With Oc1ccc(Cl)cc1Sc1cc(Cl)ccc1O [CP194] the assay gave potency 12 µM (inhibitor, partial curve, poor fit).
With Oc1ccc(Cl)cc1Sc1cc(Cl)ccc1O [GB4] the assay gave potency 12 µM (inhibitor, single point).
With Oc1ccc(Cl)cc1Sc1cc(Cl)ccc1O [CP203] the assay gave potency 12 µM (inhibitor, single point).
With Oc1ccc(Cl)cc1Sc1cc(Cl)ccc1O [DIV30] the assay gave potency 21.33 µM (inhibitor, partial curve, poor fit).
With Oc1ccc(Cl)cc1Sc1cc(Cl)ccc1O [SC27B] the assay gave potency 7.943 µM (inhibitor, partial curve).
With Oc1ccc(Cl)cc1Sc1cc(Cl)ccc1O [CP335] the assay gave potency 19.01 µM (inhibitor, partial curve, poor fit).
With Oc1ccc(Cl)cc1Sc1cc(Cl)ccc1O [CP217] the assay gave potency 11.22 µM (inhibitor, single point).
With Oc1ccc(Cl)cc1Sc1cc(Cl)ccc1O [TAB165] the assay gave potency 11.22 µM (inhibitor, single point).
With Oc1ccc(Cl)cc1Sc1cc(Cl)ccc1O [CP297] the assay gave potency 15.1 µM (inhibitor, partial curve, poor fit).
With Oc1ccc(Cl)cc1Sc1cc(Cl)ccc1O [AS120] the assay gave potency 1 µM (inhibitor, partial curve).
With Oc1ccc(Cl)cc1Sc1cc(Cl)ccc1O [TAB113] the assay gave potency 10 µM (inhibitor, partial curve, poor fit).
With Oc1ccc(Cl)cc1Sc1cc(Cl)ccc1O [ECU] the assay gave potency 6.31 µM (inhibitor, partial curve).
With Oc1ccc(Cl)cc1Sc1cc(Cl)ccc1O [DIV14] the assay gave potency 16.94 µM (inhibitor, single point).
With Oc1ccc(Cl)cc1Sc1cc(Cl)ccc1O [CP215] the assay gave potency 16.94 µM (inhibitor, single point).
With C=CCSSSCC=C [P93_24] the assay gave potency 17.78 µM (inhibitor, single point).
With C[C@]12CC[C@@H]3c4ccc(O)cc4CC[C@H]3[C@@H]1CCC2OC(=O)CCC1CCCC1 (some centres undefined) [W2] the assay gave potency 15.1 µM (inhibitor, single point).
With C[C@]12CC[C@@H]3c4ccc(O)cc4CC[C@H]3[C@@H]1CCC2OC(=O)CCC1CCCC1 (some centres undefined) [3D7] the assay gave potency 17.78 µM (inhibitor, single point).
With C[C@]12CC[C@@H]3c4ccc(O)cc4CC[C@H]3[C@@H]1CCC2OC(=O)CCC1CCCC1 (some centres undefined) [PAD] the assay gave potency 10 µM (inhibitor, single point).
With C[C@]12CC[C@@H]3c4ccc(O)cc4CC[C@H]3[C@@H]1CCC2OC(=O)CCC1CCCC1 (some centres undefined) [PC15] the assay gave potency 14.13 µM (inhibitor, single point).

The first 2 entries again:

SMILES	tested on / at	potency (µM)	remark
Oc1c(Cl)cc(Cl)c(Cl)c1Cc1c(O)c(Cl)cc(Cl)c1Cl	CP291	13.46	inhibitor, single point
Oc1c(Cl)cc(Cl)c(Cl)c1Cc1c(O)c(Cl)cc(Cl)c1Cl	CP297	16.94	inhibitor, single point

Source: PubChem BioAssay AID504749 (NCATS, 2011).